Measurements from PMC6294520.
No constants are given. Whether binding was seen depends on the method and setting. Binding seen in cells or lysates may run through a third protein. These calls come from enrichment with a bait or labelling near it, and not all partners need be listed. A no says only that the protein was not detected with the bait.

Amino acid sequences for entries named in this document (tags omitted).
UniProt Q9Y4F3: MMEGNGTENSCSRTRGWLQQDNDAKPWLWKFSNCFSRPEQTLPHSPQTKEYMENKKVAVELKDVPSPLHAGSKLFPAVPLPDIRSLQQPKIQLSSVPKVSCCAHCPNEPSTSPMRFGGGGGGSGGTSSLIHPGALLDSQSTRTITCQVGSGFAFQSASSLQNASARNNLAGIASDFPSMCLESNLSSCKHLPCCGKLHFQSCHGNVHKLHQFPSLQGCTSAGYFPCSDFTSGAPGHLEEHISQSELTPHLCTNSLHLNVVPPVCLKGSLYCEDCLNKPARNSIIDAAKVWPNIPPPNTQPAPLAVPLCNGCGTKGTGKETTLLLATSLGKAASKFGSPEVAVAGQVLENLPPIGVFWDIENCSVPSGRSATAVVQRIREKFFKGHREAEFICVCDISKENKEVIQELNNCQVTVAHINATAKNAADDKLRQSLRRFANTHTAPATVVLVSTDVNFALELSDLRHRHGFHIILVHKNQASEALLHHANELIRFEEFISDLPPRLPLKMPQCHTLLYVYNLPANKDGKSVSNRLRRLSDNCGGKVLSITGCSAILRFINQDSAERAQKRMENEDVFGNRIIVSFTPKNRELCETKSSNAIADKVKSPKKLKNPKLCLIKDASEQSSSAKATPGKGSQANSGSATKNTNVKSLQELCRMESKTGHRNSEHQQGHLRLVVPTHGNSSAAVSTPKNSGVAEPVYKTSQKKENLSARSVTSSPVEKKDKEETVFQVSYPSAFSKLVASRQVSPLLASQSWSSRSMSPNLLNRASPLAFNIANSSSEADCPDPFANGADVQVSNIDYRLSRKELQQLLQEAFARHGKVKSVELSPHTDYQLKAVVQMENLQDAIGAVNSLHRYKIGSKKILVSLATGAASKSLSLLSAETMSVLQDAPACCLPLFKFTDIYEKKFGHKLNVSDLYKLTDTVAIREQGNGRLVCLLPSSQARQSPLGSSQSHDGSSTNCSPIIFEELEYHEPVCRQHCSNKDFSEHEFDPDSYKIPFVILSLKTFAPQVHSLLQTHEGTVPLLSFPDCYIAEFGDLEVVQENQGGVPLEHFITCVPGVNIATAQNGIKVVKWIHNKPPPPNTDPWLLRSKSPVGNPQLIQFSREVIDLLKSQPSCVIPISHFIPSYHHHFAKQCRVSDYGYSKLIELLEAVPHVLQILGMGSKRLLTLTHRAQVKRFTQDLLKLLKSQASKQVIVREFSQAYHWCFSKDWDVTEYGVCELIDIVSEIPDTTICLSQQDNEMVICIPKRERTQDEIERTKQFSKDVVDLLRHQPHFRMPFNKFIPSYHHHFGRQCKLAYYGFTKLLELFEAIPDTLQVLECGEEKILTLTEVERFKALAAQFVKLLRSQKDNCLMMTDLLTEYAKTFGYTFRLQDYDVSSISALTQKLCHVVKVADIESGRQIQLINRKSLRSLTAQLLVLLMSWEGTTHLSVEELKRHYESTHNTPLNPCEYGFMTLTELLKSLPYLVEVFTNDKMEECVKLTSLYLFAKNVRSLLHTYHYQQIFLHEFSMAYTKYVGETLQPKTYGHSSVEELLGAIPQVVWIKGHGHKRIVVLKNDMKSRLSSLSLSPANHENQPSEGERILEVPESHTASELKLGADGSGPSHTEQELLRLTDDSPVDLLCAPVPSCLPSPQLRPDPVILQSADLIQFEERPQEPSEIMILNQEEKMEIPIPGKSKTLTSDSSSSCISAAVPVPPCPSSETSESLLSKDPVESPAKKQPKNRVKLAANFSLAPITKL
UniProt Q96F86: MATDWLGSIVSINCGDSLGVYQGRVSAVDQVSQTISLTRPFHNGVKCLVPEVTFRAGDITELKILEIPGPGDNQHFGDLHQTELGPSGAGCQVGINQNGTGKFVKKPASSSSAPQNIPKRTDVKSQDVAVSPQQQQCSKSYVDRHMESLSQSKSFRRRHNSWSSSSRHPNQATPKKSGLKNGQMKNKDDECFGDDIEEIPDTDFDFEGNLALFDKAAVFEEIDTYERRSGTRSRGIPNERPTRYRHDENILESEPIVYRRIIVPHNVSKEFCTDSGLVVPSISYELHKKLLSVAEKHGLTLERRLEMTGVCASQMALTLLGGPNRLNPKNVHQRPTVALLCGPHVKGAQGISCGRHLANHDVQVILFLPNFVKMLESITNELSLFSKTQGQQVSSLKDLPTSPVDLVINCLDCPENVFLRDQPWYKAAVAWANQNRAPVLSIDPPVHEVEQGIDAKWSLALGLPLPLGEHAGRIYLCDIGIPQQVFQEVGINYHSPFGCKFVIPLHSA
UniProt Q8IZH2: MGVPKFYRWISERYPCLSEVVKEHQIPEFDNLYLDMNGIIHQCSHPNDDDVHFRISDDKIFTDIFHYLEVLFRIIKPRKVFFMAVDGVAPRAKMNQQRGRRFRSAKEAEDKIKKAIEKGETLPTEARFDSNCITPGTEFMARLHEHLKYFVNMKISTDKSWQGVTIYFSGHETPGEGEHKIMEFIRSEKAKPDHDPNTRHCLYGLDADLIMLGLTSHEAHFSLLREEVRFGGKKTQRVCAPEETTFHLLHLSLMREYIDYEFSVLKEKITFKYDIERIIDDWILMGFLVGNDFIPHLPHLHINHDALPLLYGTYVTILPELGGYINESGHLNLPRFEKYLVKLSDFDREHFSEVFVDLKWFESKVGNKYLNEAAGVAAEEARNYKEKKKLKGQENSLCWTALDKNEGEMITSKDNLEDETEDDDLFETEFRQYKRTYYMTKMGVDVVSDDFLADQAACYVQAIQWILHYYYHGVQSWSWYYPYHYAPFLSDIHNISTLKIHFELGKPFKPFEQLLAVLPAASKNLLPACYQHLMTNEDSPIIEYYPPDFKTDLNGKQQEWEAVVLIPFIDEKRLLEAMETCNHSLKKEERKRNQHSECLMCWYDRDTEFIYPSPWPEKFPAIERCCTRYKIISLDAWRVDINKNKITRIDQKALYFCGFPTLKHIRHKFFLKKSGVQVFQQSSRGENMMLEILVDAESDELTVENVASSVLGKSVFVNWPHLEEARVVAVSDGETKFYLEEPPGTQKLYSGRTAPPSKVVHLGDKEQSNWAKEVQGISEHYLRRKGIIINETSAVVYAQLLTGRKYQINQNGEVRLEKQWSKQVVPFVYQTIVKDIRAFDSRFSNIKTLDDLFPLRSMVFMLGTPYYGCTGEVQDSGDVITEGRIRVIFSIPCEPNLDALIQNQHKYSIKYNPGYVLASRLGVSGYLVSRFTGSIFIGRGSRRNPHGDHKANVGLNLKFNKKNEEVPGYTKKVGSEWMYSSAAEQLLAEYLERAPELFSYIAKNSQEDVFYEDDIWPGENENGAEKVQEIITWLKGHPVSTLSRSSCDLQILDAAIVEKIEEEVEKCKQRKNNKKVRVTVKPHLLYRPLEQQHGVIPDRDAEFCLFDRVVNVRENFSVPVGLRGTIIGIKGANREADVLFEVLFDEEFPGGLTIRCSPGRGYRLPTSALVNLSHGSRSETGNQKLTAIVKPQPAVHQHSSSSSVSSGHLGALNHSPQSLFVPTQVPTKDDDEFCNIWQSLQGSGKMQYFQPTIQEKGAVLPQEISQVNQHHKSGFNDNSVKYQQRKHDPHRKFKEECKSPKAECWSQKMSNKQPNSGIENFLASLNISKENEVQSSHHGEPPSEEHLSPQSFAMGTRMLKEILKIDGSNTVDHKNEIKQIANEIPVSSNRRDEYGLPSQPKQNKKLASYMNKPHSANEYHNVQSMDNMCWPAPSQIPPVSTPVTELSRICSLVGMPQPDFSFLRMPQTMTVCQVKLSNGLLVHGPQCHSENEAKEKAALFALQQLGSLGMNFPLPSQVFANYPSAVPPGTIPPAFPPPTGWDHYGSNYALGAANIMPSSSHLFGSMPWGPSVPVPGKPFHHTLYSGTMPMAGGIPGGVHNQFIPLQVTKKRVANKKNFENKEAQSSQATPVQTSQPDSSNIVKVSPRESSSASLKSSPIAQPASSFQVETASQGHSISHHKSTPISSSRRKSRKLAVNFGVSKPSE
UniProt A5YKK6: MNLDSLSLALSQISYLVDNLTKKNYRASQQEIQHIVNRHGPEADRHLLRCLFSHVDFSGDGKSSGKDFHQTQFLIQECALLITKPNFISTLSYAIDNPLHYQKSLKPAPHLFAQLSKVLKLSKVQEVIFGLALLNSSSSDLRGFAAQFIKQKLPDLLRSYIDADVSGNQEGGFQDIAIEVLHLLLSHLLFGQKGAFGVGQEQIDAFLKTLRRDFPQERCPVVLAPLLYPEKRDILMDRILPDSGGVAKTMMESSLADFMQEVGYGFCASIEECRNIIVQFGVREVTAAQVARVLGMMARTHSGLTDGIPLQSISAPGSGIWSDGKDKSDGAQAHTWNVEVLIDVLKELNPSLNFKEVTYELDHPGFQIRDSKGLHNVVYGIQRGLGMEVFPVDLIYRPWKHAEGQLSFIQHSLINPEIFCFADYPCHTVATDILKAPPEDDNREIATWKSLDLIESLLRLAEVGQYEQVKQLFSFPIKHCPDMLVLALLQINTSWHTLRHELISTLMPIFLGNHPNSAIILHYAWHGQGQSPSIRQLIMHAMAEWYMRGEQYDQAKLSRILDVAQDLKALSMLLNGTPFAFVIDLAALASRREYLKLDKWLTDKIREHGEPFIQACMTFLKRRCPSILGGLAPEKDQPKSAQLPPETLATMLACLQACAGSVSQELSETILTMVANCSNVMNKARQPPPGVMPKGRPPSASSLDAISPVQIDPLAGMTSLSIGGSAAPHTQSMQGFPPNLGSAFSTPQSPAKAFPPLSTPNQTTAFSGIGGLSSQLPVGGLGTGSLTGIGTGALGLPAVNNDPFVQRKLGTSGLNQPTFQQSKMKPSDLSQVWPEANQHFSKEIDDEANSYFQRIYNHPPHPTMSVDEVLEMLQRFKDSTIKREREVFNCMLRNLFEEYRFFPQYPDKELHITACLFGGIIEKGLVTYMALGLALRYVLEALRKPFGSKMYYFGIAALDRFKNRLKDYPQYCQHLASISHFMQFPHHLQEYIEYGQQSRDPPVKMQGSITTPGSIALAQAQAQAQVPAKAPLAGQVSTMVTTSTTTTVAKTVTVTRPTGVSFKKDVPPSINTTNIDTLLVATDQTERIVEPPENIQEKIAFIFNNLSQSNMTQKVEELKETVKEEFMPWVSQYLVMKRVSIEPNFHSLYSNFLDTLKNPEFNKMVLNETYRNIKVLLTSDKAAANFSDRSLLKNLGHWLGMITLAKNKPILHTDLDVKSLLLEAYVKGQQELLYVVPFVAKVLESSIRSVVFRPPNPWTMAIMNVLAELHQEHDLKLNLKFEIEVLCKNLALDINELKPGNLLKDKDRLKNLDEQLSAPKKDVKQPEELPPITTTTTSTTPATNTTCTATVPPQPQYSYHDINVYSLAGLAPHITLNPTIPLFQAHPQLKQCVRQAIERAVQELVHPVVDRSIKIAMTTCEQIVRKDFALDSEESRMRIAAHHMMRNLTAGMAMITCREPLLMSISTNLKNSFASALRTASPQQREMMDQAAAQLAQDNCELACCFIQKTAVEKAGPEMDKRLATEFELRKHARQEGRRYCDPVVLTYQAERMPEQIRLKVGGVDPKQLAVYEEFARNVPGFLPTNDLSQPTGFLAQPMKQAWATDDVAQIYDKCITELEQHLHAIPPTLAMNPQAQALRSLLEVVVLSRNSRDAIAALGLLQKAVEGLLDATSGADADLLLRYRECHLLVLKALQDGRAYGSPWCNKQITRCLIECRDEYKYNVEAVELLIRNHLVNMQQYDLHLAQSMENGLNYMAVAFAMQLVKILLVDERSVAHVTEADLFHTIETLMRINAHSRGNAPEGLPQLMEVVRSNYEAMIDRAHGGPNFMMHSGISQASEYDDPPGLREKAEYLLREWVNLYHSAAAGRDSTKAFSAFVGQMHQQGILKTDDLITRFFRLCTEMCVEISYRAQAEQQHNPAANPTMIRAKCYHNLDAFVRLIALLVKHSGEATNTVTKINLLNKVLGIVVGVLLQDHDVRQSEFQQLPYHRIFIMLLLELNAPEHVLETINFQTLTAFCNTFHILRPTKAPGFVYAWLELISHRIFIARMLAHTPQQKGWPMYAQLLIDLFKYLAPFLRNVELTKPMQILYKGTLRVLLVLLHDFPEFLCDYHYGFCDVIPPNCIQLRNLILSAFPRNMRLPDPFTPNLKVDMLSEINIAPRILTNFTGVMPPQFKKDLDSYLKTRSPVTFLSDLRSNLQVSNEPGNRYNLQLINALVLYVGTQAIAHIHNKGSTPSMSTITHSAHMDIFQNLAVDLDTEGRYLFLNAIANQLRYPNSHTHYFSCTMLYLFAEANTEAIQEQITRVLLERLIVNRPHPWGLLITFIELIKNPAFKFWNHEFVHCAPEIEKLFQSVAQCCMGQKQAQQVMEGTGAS

Legend:
[1] = molecular target: FLAG-tagged MARF1 (Meiosis arrest female 1) (human) (UniProt Q9Y4F3); experiment: affinity purification with mass spectrometry; FLAG-MARF1 induced in stable HEK293 cells; benzonase-treated lysate (50 mM HEPES-NaOH pH 8.0, 100 mM KCl, 2 mM EDTA, 0.1% NP40, 10% glycerol); anti-FLAG M2 magnetic beads, 4°C; MS/MS, SAINT scoring of two replicates against negative controls
[2] = molecular target: Full-length FLAG-BirA*-MARF1 (human) (UniProt Q9Y4F3); experiment: proximity labelling; BioID: HEK293 cells expressing FLAG-BirA*-MARF1 incubated with biotin, lysed under harsh conditions; streptavidin agarose pull-down from benzonase-treated lysates; western blot of endogenous proteins

binding [1]	binding [2]	Molecule
binds	–	EDC3 (enhancer of mRNA decapping) (from UniProt Q96F86 1-508)
binds	binds	5′-3′ exonuclease XRN1 (from UniProt Q8IZH2 1-1706)
binds	binds	DCP2 decapping enzyme (from UniProt Q8IU60 1-420)
–	no binding	CNOT1, the central subunit of the CCR4-NOT deadenylase complex (from UniProt A5YKK6 1-2376)
binds	–	LSM1 (protein, UniProt O15116 1-133) MNYMPGTASLIEDIDKKHLVLLRDGRTLIGFLRSIDQFANLVLHQTVERIHVGKKYGDIPRGIFVVRGENVVLLGEIDLEKESDTPLQQVSIEEILEEQRVEQQTKLEAEKLKVQALKDRGLSIPRADTLDEY
binds	binds	PATL1 (protein, UniProt Q86TB9 1-770) MFRYESLEDCPLDEDEDAFQGLGEEDEEIDQFNDDTFGSGAVDDDWQEAHERLAELEEKLPVAVNEQTGNGERDEMDLLGDHEENLAERLSKMVIENELEDPAIMRAVQTRPVLQPQPGSLNSSIWDGSEVLRRIRGPLLAQEMPTVSVLEYALPQRPPQGPEDDRDLSERALPRRSTSPIIGSPPVRAVPIGTPPKQMAVPSFTQQILCPKPVHVRPPMPPRYPAPYGERMSPNQLCSVPNSSLLGHPFPPSVPPVLSPLQRAQLLGGAQLQPGRMSPSQFARVPGFVGSPLAAMNPKLLQGRVGQMLPPAPGFRAFFSAPPSATPPPQQHPPGPGPHLQNLRSQAPMFRPDTTHLHPQHRRLLHQRQQQNRSQHRNLNGAGDRGSHRSSHQDHLRKDPYANLMLQREKDWVSKIQMMQLQSTDPYLDDFYYQNYFEKLEKLSAAEEIQGDGPKKERTKLITPQVAKLEHAYKPVQFEGSLGKLTVSSVNNPRKMIDAVVTSRSEDDETKEKQVRDKRRKTLVIIEKTYSLLLDVEDYERRYLLSLEEERPALMDDRKHKICSMYDNLRGKLPGQERPSDDHFVQIMCIRKGKRMVARILPFLSTEQAADILMTTARNLPFLIKKDAQDEVLPCLLSPFSLLLYHLPSVSITSLLRQLMNLPQSAATPALSNPHLTAVLQNKFGLSLLLILLSRGEDLQSSDPATESTQNNQWTEVMFMATRELLRIPQAALAKPISIPTNLVSLFSRYVDRQKLNLLETKLQLVQGIR
binds	–	LSM2 (protein, UniProt Q9Y333 1-95) MLFYSFFKSLVGKDVVVELKNDLSICGTLHSVDQYLNIKLTDISVTDPEKYPHMLSVKNCFIRGSVVRYVQLPADEVDTQLLQDAARKEALQQKQ
no binding	–	PAN2 (subunit of the PAN2-PAN3 deadenylase complex) (protein, UniProt Q504Q3 1-1202) MNFEGLDPGLAEYAPAMHSALDPVLDAHLNPSLLQNVELDPEGVALEALPVQESVHIMEGVYSELHSVVAEVGVPVSVSHFDLHEEMLWVGSHGGHATSFFGPALERYSSFQVNGSDDIRQIQSLENGILFLTKNNLKYMARGGLIIFDYLLDENEDMHSLLLTDSSTLLVGGLQNHIIEIDLNTVQETQKYAVETPGVTIMRQTNRFFFCGHTSGKVSLRDLRTFKVEHEFDAFSGSLSDFDVHGNLLAACGFSSRLTGLACDRFLKVYDLRMMRAITPLQVHVDPAFLRFIPTYTSRLAIISQSGQCQFCEPTGLANPADIFHVNPVGPLLMTFDVSASKQALAFGDSEGCVHLWTDSPEPSFNPYSRETEFALPCLVDSLPPLDWSQDLLPLSLIPVPLTTDTLLSDWPAANSAPAPRRAPPVDAEILRTMKKVGFIGYAPNPRTRLRNQIPYRLKESDSEFDSFSQVTESPVGREEEPHLHMVSKKYRKVTIKYSKLGLEDFDFKHYNKTLFAGLEPHIPNAYCNCMIQVLYFLEPVRCLIQNHLCQKEFCLACELGFLFHMLDLSRGDPCQGNNFLRAFRTIPEASALGLILADSDEASGKGNLARLIQRWNRFILTQLHQDMQELEIPQAYRGAGGSSFCSSGDSVIGQLFSCEMENCSLCRCGSETVRASSTLLFTLSYPDGSKSDKTGKNYDFAQVLKRSICLDQNTQAWCDTCEKYQPTIQTRNIRHLPDILVINCEVNSSKEADFWRMQAEVAFKMAVKKHGGEISKNKEFALADWKELGSPEGVLVCPSIEELKNVWLPFSIRMKMTKNKGLDVCNWTDGDEMQWGPARAEEEHGVYVYDLMATVVHILDSRTGGSLVAHIKVGETYHQRKEGVTHQQWYLFNDFLIEPIDKHEAVQFDMNWKVPAILYYVKRNLNSRYNLNIKNPIEASVLLAEASLARKQRKTHTTFIPLMLNEMPQIGDLVGLDAEFVTLNEEEAELRSDGTKSTIKPSQMSVARITCVRGQGPNEGIPFIDDYISTQEQVVDYLTQYSGIKPGDLDAKISSKHLTTLKSTYLKLRFLIDIGVKFVGHGLQKDFRVINLMVPKDQVLDTVYLFHMPRKRMISLRFLAWYFLDLKIQGETHDSIEDARTALQLYRKYLELSKNGTEPESFHKVLKGLYEKGRKMDWKVPEPEGQTSPKNAAVFSSVLAL
binds	binds	EDC4 (enhancer of mRNA decapping) (protein, UniProt Q6P2E9 1-1401) MASCASIDIEDATQHLRDILKLDRPAGGPSAESPRPSSAYNGDLNGLLVPDPLCSGDSTSANKTGLRTMPPINLQEKQVICLSGDDSSTCIGILAKEVEIVASSDSSISSKARGSNKVKIQPVAKYDWEQKYYYGNLIAVSNSFLAYAIRAANNGSAMVRVISVSTSERTLLKGFTGSVADLAFAHLNSPQLACLDEAGNLFVWRLALVNGKIQEEILVHIRQPEGTPLNHFRRIIWCPFIPEESEDCCEESSPTVALLHEDRAEVWDLDMLRSSHSTWPVDVSQIKQGFIVVKGHSTCLSEGALSPDGTVLATASHDGYVKFWQIYIEGQDEPRCLHEWKPHDGRPLSCLLFCDNHKKQDPDVPFWRFLITGADQNRELKMWCTVSWTCLQTIRFSPDIFSSVSVPPSLKVCLDLSAEYLILSDVQRKVLYVMELLQNQEEGHACFSSISEFLLTHPVLSFGIQVVSRCRLRHTEVLPAEEENDSLGADGTHGAGAMESAAGVLIKLFCVHTKALQDVQIRFQPQLNPDVVAPLPTHTAHEDFTFGESRPELGSEGLGSAAHGSQPDLRRIVELPAPADFLSLSSETKPKLMTPDAFMTPSASLQQITASPSSSSSGSSSSSSSSSSSLTAVSAMSSTSAVDPSLTRPPEELTLSPKLQLDGSLTMSSSGSLQASPRGLLPGLLPAPADKLTPKGPGQVPTATSALSLELQEVEPLGLPQASPSRTRSPDVISSASTALSQDIPEIASEALSRGFGSSAPEGLEPDSMASAASALHLLSPRPRPGPELGPQLGLDGGPGDGDRHNTPSLLEAALTQEASTPDSQVWPTAPDITRETCSTLAESPRNGLQEKHKSLAFHRPPYHLLQQRDSQDASAEQSDHDDEVASLASASGGFGTKVPAPRLPAKDWKTKGSPRTSPKLKRKSKKDDGDAAMGSRLTEHQVAEPPEDWPALIWQQQRELAELRHSQEELLQRLCTQLEGLQSTVTGHVERALETRHEQEQRRLERALAEGQQRGGQLQEQLTQQLSQALSSAVAGRLERSIRDEIKKTVPPCVSRSLEPMAGQLSNSVATKLTAVEGSMKENISKLLKSKNLTDAIARAAADTLQGPMQAAYREAFQSVVLPAFEKSCQAMFQQINDSFRLGTQEYLQQLESHMKSRKAREQEAREPVLAQLRGLVSTLQSATEQMAATVAGSVRAEVQHQLHVAVGSLQESILAQVQRIVKGEVSVALKEQQAAVTSSIMQAMRSAAGTPVPSAHLDCQAQQAHILQLLQQGHLNQAFQQALTAADLNLVLYVCETVDPAQVFGQPPCPLSQPVLLSLIQQLASDLGTRTDLKLSYLEEAVMHLDHSDPITRDHMGSVMAQVRQKLFQFLQAEPHNSLGKAARRLSLMLHGLVTPSLP
